PubChem BioAssay AID1259405 | NCATS | 2018
Purpose: 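Mouse-designed siRNAs used to find CHO productivity engineering targets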 (primary screen). Cell system: Chinese hamster CHO-K1 ovary cells with stable secreted eGFP expression. Reagent: single siRNA against mouse genes, 0.8 pmol siRNA per well (2 µl of 400 nM stock). Time to read-out: 3 days. Measurement: 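Per-well intracellular GFP measured by laser scanning cytometry, plus viability from ATP luminescence, each relative to plate median of non-targeting control wells, in %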. Reading the numbers: GFP, % of control: higher = more GFP per well, higher productivity; viability (ATP), % of control: higher = more viable cells (more ATP). Active means: 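a knock-down is called active if GFP reaches 120% or more of non-targeting control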.
The deposit covers about 50,000 reagents; this is an unselected part. About 4,000 of them (8%) count as active. 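Mouse siRNA library applied to hamster cells; one well for each siRNA.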 A number with no mark means an inactive call. The numbers tell different reagents against one gene apart.

| gene symbol | siRNA no. | GFP, % of control | viability (ATP), % of control |
| --- | --- | --- | --- |
| Pcdha7 (GeneID 12939) | 1 | 93.5 | 47.6 |
| Pcdha7 (GeneID 12939) | 2 | 30.8 | 46 |
| Pcdha7 (GeneID 12939) | 3 | 71.9 | 69.2 |
| Caml (GeneID 12328) | 1 | 65.9 | 75.3 |
| Caml (GeneID 12328) | 2 | 36.5 | 42.2 |
| Caml (GeneID 12328) | 3 | 107 | 119 |
| Ylpm1 (GeneID 56531) | 1 | 41.6 | 84.8 |
| Ylpm1 (GeneID 56531) | 2 | 61.7 | 72.8 |
| Ylpm1 (GeneID 56531) | 3 | 36.7 | 73.8 |
| Nucb1 (GeneID 18220) | 1 | 50 | 43 |
| Nucb1 (GeneID 18220) | 2 | 83.7 | 82.4 |
| D830050J10Rik (GeneID 352968) | 1 | 64.6 | 75.1 |
| D830050J10Rik (GeneID 352968) | 2 | 50.6 | 75.3 |
| D830050J10Rik (GeneID 352968) | 3 | 57.8 | 58.9 |
| Tmtc4 (GeneID 70551) | 1 | 90.2 | 68.1 |
| Tmtc4 (GeneID 70551) | 2 | 57.2 | 90.2 |
| Tmtc4 (GeneID 70551) | 3 | 62.5 | 69.2 |
| Vmn1r218 (GeneID 171256) | 1 | 76.2 | 69.2 |
| Vmn1r218 (GeneID 171256) | 2 | 118 | 112 |
| Vmn1r218 (GeneID 171256) | 3 | 77.8 | 90.8 |
| 4930471G03Rik (GeneID 74966) | 1 | 120 (active) | 67.7 |
| 4930471G03Rik (GeneID 74966) | 2 | 49.5 | 66.4 |
| 4930471G03Rik (GeneID 74966) | 3 | 67.9 | 90.8 |
| Dnaja4 (GeneID 58233) | 1 | 81.3 | 73.5 |
| Dnaja4 (GeneID 58233) | 2 | 98.8 | 95.3 |
| Dnaja4 (GeneID 58233) | 3 | 66.4 | 105 |
| Acss3 (GeneID 380660) | 1 | 28.5 | 45.4 |
| Acss3 (GeneID 380660) | 2 | 66.7 | 82.1 |
| Acss3 (GeneID 380660) | 3 | 53.1 | 63.5 |
| Tmem151a (GeneID 381199) | 1 | 141 (active) | 88.7 |
| Tmem151a (GeneID 381199) | 2 | 50.4 | 64 |
| Tmem151a (GeneID 381199) | 3 | 50.7 | 31.6 |
| Zfp235 (GeneID 56525) | 1 | 112 | 122 |
| Zfp235 (GeneID 56525) | 2 | 71.5 | 45.5 |
| Zfp235 (GeneID 56525) | 3 | 48.1 | 90 |
| H2-M1 (GeneID 224756) | 1 | 71.2 | 66 |
| H2-M1 (GeneID 224756) | 2 | 90.7 | 74.7 |
| H2-M1 (GeneID 224756) | 3 | 63.3 | 27.6 |
| Ifnz (GeneID 319146) | 1 | 45 | 63.3 |
| Ifnz (GeneID 319146) | 2 | 68.7 | 58.6 |
| Ifnz (GeneID 319146) | 3 | 91.6 | 64.7 |
| H2ac25 (GeneID 319162) | 1 | 70.2 | 101 |
| H2ac25 (GeneID 319162) | 2 | 108 | 86.2 |
| H2ac25 (GeneID 319162) | 3 | 62.5 | 71.7 |
| Brdt (GeneID 114642) | 1 | 98.5 | 106 |
| Brdt (GeneID 114642) | 2 | 55.1 | 52.2 |
| Brdt (GeneID 114642) | 3 | 84.6 | 78 |
| Pramel31 (GeneID 433779) | 1 | 66.3 | 66.5 |
| Pramel31 (GeneID 433779) | 2 | 135 (active) | 83.4 |
| Pramel31 (GeneID 433779) | 3 | 77.2 | 72.2 |
| Or2f1 (GeneID 258016) | 1 | 50.5 | 48.7 |
| Or2f1 (GeneID 258016) | 2 | 80.2 | 75.3 |
| Or2f1 (GeneID 258016) | 3 | 0 | 1.37 |
| Tmed3 (GeneID 66111) | 1 | 62.3 | 68.8 |
| Tmed3 (GeneID 66111) | 2 | 86.4 | 84.5 |
| Tmed3 (GeneID 66111) | 3 | 116 | 70.3 |
| Pepf (GeneID 58803) | 1 | 83.8 | 91.1 |
| Pepf (GeneID 58803) | 2 | 68 | 53.1 |
| Pepf (GeneID 58803) | 3 | 88.9 | 79.8 |
| Or6aa1 (GeneID 258612) | 1 | 62.9 | 25 |
| Or6aa1 (GeneID 258612) | 2 | 52.3 | 55.3 |
| Or6aa1 (GeneID 258612) | 3 | 34.4 | 89 |
| Rgl3 (GeneID 71746) | 1 | 71.9 | 59.3 |
| Rgl3 (GeneID 71746) | 2 | 68.7 | 105 |
| Rgl3 (GeneID 71746) | 3 | 62.1 | 60.7 |
| Or10a3n (GeneID 277935) | 1 | 53.1 | 62.3 |
| Or10a3n (GeneID 277935) | 2 | 72.6 | 104 |
| Or10a3n (GeneID 277935) | 3 | 8.25 | 12.3 |
| Scyl2 (GeneID 213326) | 1 | 67 | 101 |
| Scyl2 (GeneID 213326) | 2 | 115 | 99.8 |
| Tmem43 (GeneID 74122) | 1 | 76.2 | 93.8 |
| Tmem43 (GeneID 74122) | 2 | 46.7 | 38 |
| Tmem43 (GeneID 74122) | 3 | 56.5 | 67.9 |
| Purb (GeneID 19291) | 1 | 83.8 | 55.5 |
| Purb (GeneID 19291) | 2 | 96.2 | 61.6 |
| Purb (GeneID 19291) | 3 | 65.8 | 62.7 |
| Fundc2b (GeneID 73297) | 1 | 49.2 | 91.4 |
| Fundc2b (GeneID 73297) | 2 | 48.4 | 42 |
| Fundc2b (GeneID 73297) | 3 | 69.8 | 84 |
| 4930451E10Rik (GeneID 78111) | 1 | 84.4 | 76.4 |
| 4930451E10Rik (GeneID 78111) | 2 | 23.5 | 20.1 |
| 4930451E10Rik (GeneID 78111) | 3 | 73.2 | 97.9 |
| Pcdha8 (GeneID 353235) | 1 | 68.1 | 64.8 |
| Pcdha8 (GeneID 353235) | 2 | 55.6 | 48.6 |
| Pcdha8 (GeneID 353235) | 3 | 66.1 | 70.8 |

5 entries from above, ordered by “GFP, % of control”, descending:
| gene symbol | siRNA no. | GFP, % of control | viability (ATP), % of control |
| --- | --- | --- | --- |
| Caml (GeneID 12328) | 3 | 107 | 119 |
| Caml (GeneID 12328) | 1 | 65.9 | 75.3 |
| Ylpm1 (GeneID 56531) | 2 | 61.7 | 72.8 |
| Ylpm1 (GeneID 56531) | 1 | 41.6 | 84.8 |
| Caml (GeneID 12328) | 2 | 36.5 | 42.2 |
